# Assay results as given in PubChem BioAssay AID720504 (National Center for Advancing Translational Sciences (NCATS), 2013).
# By UniProt entry, the sequences of proteins in these tests, tags left out.
# UniProt P53350, whole entry, looked up: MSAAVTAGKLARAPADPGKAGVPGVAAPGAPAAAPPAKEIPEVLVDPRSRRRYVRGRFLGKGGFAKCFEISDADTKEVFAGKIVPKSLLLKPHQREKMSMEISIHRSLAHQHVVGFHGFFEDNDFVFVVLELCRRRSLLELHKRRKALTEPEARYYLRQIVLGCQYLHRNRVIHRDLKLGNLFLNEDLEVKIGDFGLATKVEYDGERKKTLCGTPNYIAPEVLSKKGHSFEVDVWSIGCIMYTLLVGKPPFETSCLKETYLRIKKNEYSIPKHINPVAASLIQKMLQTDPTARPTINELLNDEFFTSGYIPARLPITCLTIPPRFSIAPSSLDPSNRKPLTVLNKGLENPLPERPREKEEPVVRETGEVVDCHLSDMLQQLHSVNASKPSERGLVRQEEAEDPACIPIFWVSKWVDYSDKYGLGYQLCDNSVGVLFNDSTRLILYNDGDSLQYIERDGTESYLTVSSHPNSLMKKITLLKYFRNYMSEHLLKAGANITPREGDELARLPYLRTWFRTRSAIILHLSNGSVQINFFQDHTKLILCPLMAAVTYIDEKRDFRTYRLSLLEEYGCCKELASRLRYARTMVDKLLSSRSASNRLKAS
# Among all 360,000 compounds or so, about 10,000 (2.8%) were called active. The shares of active, inactive and inconclusive entries below differ from those in the screen. Calls come from the whole dose curve; as a rule, active = well fitted inhibition curve with a large enough effect; inconclusive = small, poorly fitted or top-dose-only effect; inactive = flat fitted curve, though single readings scatter. A potency beside an inconclusive call is a rough fit, not a confirmed value.
# Molecular target: Serine/threonine-protein kinase PLK1 (Homo sapiens) (UniProt P53350)
# Experiment: qHTS for Inhibitors of PLK1-PDB (polo-like kinase 1 - polo-box domain): Primary Screen; note: nearly all actives have a fitted effect of over 65% in size; for max response, negative = inhibition: series mostly up to about 57 µM
# Conditions: Plk1 PBD binding of FITC phosphopeptide, fluorescence polarization
# % is set by controls: 0 for no effect and ±100 for the full control effect; potency is the fitted concentration of half-maximal effect.
Compound,"max response, negative = inhibition",Potency
O=C1CN(C(=O)c2cccc(Br)c2)c2ccccc2N1,inactive: -8.18%,
COc1ccc(S(=O)(=O)N(C)C)cc1NCC(=O)Nc1ccc(F)cc1F,,"inconclusive: 29.9 µM [inhibitor, single point]"
CC(C(=O)Nc1ccc(O)c(C(=O)O)c1)N1C(=O)/C(=C/c2cccs2)SC1=S (centres undefined),,"inconclusive: 26.7 µM [inhibitor, single point]"
CN(C)S(=O)(=O)c1ccc(C(=O)Nc2nnc(SCC(=O)NCC3CCCO3)s2)cc1 (centres undefined),,"inconclusive: 18.9 µM [inhibitor, partial curve]"
CCOC(=O)C1CCN(C(=O)CSc2ccccc2)CC1,,"inconclusive: 26.7 µM [inhibitor, partial curve]"
CCc1ccc(/C=N/NC(=O)c2cc(-c3cccc([N+](=O)[O-])c3)n[nH]2)cc1,inactive: 2.36%,
Cc1ccccc1C(=O)c1c[nH]c(C(N)=O)c1,inactive: 3.97%,
CCCCC(=O)NNC(=S)NC(=O)c1ccc([N+](=O)[O-])cc1,,active: 23.8 µM
Oc1ccc2ccccc2c1CN1CCOCC1,,active: 26.7 µM
Cc1nc2c(-c3ccccc3)c(C)nn2c(C)c1CC(=O)O,,"inconclusive: 29.9 µM [inhibitor, partial curve]"
O=C(Nc1ccon1)c1cc(-c2ccccc2)nc2ccccc12,inactive: 0.658%,
CCN(CC)CCNC(=O)c1cc(-c2ccco2)nc2ccccc12,,"inconclusive: 29.9 µM [inhibitor, partial curve]"
Cc1nnc(NC(=O)CSc2nnc3c(n2)[nH]c2ccc(Br)cc23)s1,,"inconclusive: 29.9 µM [inhibitor, partial curve]"
CCCCc1nc(C(N)=O)c2[nH]c(=O)n(-c3ccc(OC)c(OC)c3)c2n1,inconclusive: -21.6% [inhibitor],
CCOc1ccc(C(=O)N2CCN(Cc3ccccc3)CC2)cc1,,"inconclusive: 37.7 µM [inhibitor, single point]"
Cc1ccc(C(=O)O)cc1N=Cc1cc(Br)cc(Br)c1O,inconclusive: -32.1% [inhibitor],
COc1ccc(Cc2nnc(SCC(=O)Nc3ccccc3)[nH]c2=O)cc1,,"inconclusive: 18.9 µM [inhibitor, partial curve]"
CCC(CO)Oc1cc(NCc2cccnc2)c2ncn(C(C)C)c2c1 (centres undefined),inactive: -12.3%,
COc1ccc(CC(=O)NC2CCS(=O)(=O)C2)cc1 (centres undefined),inactive: 5.3%,
CCN1C(=O)/C(=C\c2ccncc2)SC1=S,inactive: -21.2%,
COc1ccc([C@@H]2[C@@H]3C(=O)N(C(C)(C)C)C(=O)[C@@H]3[C@]3(C)C(=O)N(c4ccc(C(F)(F)F)cc4)C(=O)N23)cc1,inactive: 3.98%,
Cc1ccc(/C=C2\CCCC3=C2NC(=S)NC3c2ccc(C)cc2)cc1 (centres undefined),,"inconclusive: 21.2 µM [inhibitor, partial curve]"
Cc1ccc(NC2=NCC(=O)N2Cc2cccs2)cc1C,,"inconclusive: 8.44 µM [inhibitor, single point]"
COC(=O)Cc1ccc(NC(=S)N2CCCC(CO)C2)cc1 (centres undefined),,"inconclusive: 29.9 µM [inhibitor, single point]"
Cc1ccccc1S(=O)(=O)Cc1ccc(C(=O)NC2CCC(C)CC2)o1 (centres undefined),,active: 26.7 µM

# Compounds from the list above that have bromine:
Compound,"max response, negative = inhibition",Potency
O=C1CN(C(=O)c2cccc(Br)c2)c2ccccc2N1,inactive: -8.18%,
Cc1nnc(NC(=O)CSc2nnc3c(n2)[nH]c2ccc(Br)cc23)s1,,"inconclusive: 29.9 µM [inhibitor, partial curve]"
Cc1ccc(C(=O)O)cc1N=Cc1cc(Br)cc(Br)c1O,inconclusive: -32.1% [inhibitor],

# Remaining list, next part

Compound,"max response, negative = inhibition",Potency
O=C(Cc1ccc(Cl)cc1Cl)Nc1cccc(S(=O)(=O)Nc2ccccc2F)c1,,active: 1.19 µM
O=C(NCc1ccco1)C1CC(=O)N(c2ccc(O)cc2)C1 (centres undefined),,active: 3.36 µM
Cc1cc(C)cc(N(CCC(=O)O)S(=O)(=O)c2ccc(Cl)cc2)c1,inactive: -3.26%,
Cc1ccc2[nH]c3c(=O)[nH]ncc3c2c1,,"inconclusive: 21.2 µM [inhibitor, single point]"
COCCOC(=O)C1=C(C)NC2(O)c3ccccc3C(=O)C12O (centres undefined),inactive: -13%,
CC(=O)NCCNc1nc2c(-c3ccccc3)nnn2c2ccccc12,,"inconclusive: 26.7 µM [inhibitor, single point]"
Cc1cccc(C)c1NC(=O)C(c1ccccc1F)n1c(=O)c(-c2ccco2)nc2ccccc21 (centres undefined),inconclusive: -37.9% [inhibitor],
CCCCN(C(=O)Cn1ncc(Cl)c(Cl)c1=O)c1c(N)n(CC(C)C)c(=O)[nH]c1=O,,"inconclusive: 37.7 µM [inhibitor, single point]"
O=C(c1cccnc1)N(c1cc2sc(=O)oc2c2ccccc12)S(=O)(=O)c1ccccc1,,"inconclusive: 8.44 µM [inhibitor, partial curve]"
Cc1c(-c2csc(N)n2)cnn1C,,"inconclusive: 21.2 µM [inhibitor, single point]"
CCCn1c(SCc2nc3ccccc3s2)n[nH]c1=O,,"inconclusive: 26.7 µM [inhibitor, partial curve]"
O=C(CSc1nc2ccccc2s1)NCC1CCCO1 (centres undefined),,"inconclusive: 26.7 µM [inhibitor, partial curve]"
O=C(CC1C(=O)NCCN1Cc1ccccc1C(F)(F)F)NC1CCCCC1 (centres undefined),,"inconclusive: 29.9 µM [inhibitor, partial curve]"
CCn1c(SCC(=O)Nc2ccc3c(c2)OCO3)nnc1C1CC1,inactive: -7.72%,
O=C(Nc1ccc2c(c1)oc1ccccc12)N1CCOCC1,inactive: -0.663%,
CSc1cnn(Cc2ccccc2)c(=O)c1SCc1ccccc1,,"inconclusive: 26.7 µM [inhibitor, partial curve]"
COC(=O)c1ccccc1N=C(SC)N(C)C,,active: 29.9 µM
Cn1c(Cc2ccccc2)nnc1SCC(=O)Nc1ccc(N2CCOCC2)cc1,,"inconclusive: 37.7 µM [inhibitor, single point]"
CCc1ccccc1NC(=O)Cn1nnc(-c2cccs2)n1,,"inconclusive: 29.9 µM [inhibitor, single point]"
CCCCn1nnc(NC(=S)NC(=O)c2ccc(-c3cccc(Cl)c3Cl)o2)n1,,"inconclusive: 16.8 µM [inhibitor, partial curve]"
O=C(O)C1Nc2c(C(=O)N3CCOCC3)cccc2C2C=CCC12 (centres undefined),,active: 11.9 µM
CCN(CC)CCCNC(=O)Cn1cc2c(n1)CCC(C)C2 (centres undefined),,"inconclusive: 29.9 µM [inhibitor, single point]"
NC(=O)CC[C@H](NC(=O)c1ccc(F)cc1)C(=O)OCC(=O)NCc1ccc(F)cc1,,"inconclusive: 37.7 µM [inhibitor, single point]"
O=C1ON=C(c2ccccc2)/C1=C/c1ccc(O)cc1,,active: 1.68 µM
O=C(Nc1nnc(-c2ccco2)o1)c1ccc2ccccc2c1,inconclusive: -32.4% [inhibitor],

Compound,"max response, negative = inhibition",Potency
O=C(CSc1nc2ccc(Cl)cc2[nH]1)c1cccs1,,"inconclusive: 29.9 µM [inhibitor, partial curve]"
COc1ccc(C(=O)N2CC3(C)CC2CC(C)(C)C3)cc1OC (centres undefined),inconclusive: -30.6% [inhibitor],
Cc1cc2cc(CN(Cc3ccc4c(c3)OCO4)C(=O)c3cnccn3)c3nnnn3c2cc1C,inactive: -4.7%,
CC(C)(C)C(=O)Nc1ccccc1C(=O)NCCCn1ccnc1,inactive: -10.4%,
COc1ccc2[nH]c3c(=O)n(Cc4ccc(C(=O)N5CCCC5)cc4)c(=S)[nH]c3c2c1,,active: 23.8 µM
Cc1ccc(NC2CCCN(C(=O)c3ccc(F)cc3)C2)cc1C (centres undefined),,active: 6.7 µM
COc1ccc(-n2c(SCC(=O)Nc3cccc(C(=O)O)c3)nnc2-c2ccco2)cc1,,"inconclusive: 37.7 µM [inhibitor, single point]"
O=C(CSc1n[nH]c(=O)[nH]c1=O)c1ccccc1[N+](=O)[O-],,"inconclusive: 11.9 µM [inhibitor, partial curve]"
Cc1ccc(COC(=O)CN2C(=O)NC3(CCCCC3C)C2=O)cc1 (centres undefined),inactive: 6.97%,
Cc1oncc1-c1cn2ccccc2n1,inactive: -3.67%,
C=CCSc1nnc(N2C(=O)C(O)=C(C(=O)c3ccco3)C2c2ccccc2F)s1 (centres undefined),,active: 13.4 µM
COc1ccc(C(=O)N/C(=C\c2cn(S(=O)(=O)N(C)C)c3ccccc23)C(=O)N2CCOCC2)cc1,,"inconclusive: 26.7 µM [inhibitor, partial curve]"
O=C1c2ccccc2C(=O)N1CCSc1nnc(-c2ccco2)n1Cc1ccccc1,,"inconclusive: 37.7 µM [inhibitor, single point]"
CCn1c(CC(=O)Nc2ccc(C)cc2)nnc1SCC(=O)NCc1ccccc1,inactive: -4.49%,
O=c1oc2c(O)cccc2cc1-c1nc2ccccc2[nH]1,,active: 1.89 µM
CCc1ccc2[nH]c3nc(SCCN4CCOCC4)nnc3c2c1,,active: 23.8 µM
CSc1sc(-c2n[nH]c(=S)n2C)c2c1C=CCC2,,"inconclusive: 23.8 µM [inhibitor, partial curve]"
Cc1cccc(/C=N/n2c(C3CCCCC3)n[nH]c2=S)c1,,active: 26.7 µM
COc1ccc(NC(=O)CCCCC#Cc2ccccc2)cc1,inactive: -3.47%,
CN(C)/C=C1\SC(=S)N(c2ccc(F)cc2)C1=O,,"inconclusive: 23.8 µM [inhibitor, single point]"
O=c1nc(N2CCOCC2)ccn1-c1nc(-c2ccccc2)sc1-c1ccccc1,,active: 29.9 µM
Nc1nc(SCC(=O)NNc2c(Cl)cc(Cl)cc2Cl)n[nH]1,,active: 18.9 µM
O=C(OCc1cnc(Cl)s1)c1ccccc1Cl,inactive: -14.6%,
CCCCC[C@@H]1C=C(C(=O)O)[C@H](c2ccc(Br)cc2)N1S(=O)(=O)c1ccc(C)cc1,,"inconclusive: 26.7 µM [inhibitor, single point]"
